# Measurements published in paper PMC7819943, “Rice protein-binding microarrays: a tool to detect cis-acting elements near promoter regions in rice”.
# Chains of the proteins cited; added tags and fusions are not shown.
# UniProt Q0JBA9, entry or part of it: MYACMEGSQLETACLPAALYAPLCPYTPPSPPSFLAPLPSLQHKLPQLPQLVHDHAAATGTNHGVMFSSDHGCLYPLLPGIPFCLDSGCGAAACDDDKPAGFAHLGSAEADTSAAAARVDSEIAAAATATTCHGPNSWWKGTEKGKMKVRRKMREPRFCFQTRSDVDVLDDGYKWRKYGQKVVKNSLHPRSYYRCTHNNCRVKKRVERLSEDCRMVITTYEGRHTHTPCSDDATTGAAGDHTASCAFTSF
# The list shows a part of the results.
# Biological target: OsWRKY34 (Oryza sativa, UniProt Q0JBA9 1-250)
# Experiment: protein-binding microarray (RPBM); PBS, 2% BSA, 51.3 ng/ul salmon testes DNA, 50 uM zinc acetate, 200 nM TF, 25 C, 1 h; high values mean tight binding
# Settings: protein: recombinant; tags: N-terminal polyhistidine and DsRed monomer fusion (pET32a); label: CyDye5-dUTP incorporated in the synthesized complementary strand; 3' TTTTT single-stranded linker to array surface; dsDNA, one strand shown
# Outline: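 Transcription factors, each fused N-terminally to a polyhistidine tag and DsRed, were expressed in E. coli BL21-CodonPlus and purified on Ni–NTA. A custom Agilent array was made double-stranded by primer extension with Cy5-dUTP and blocked with 2% BSA. It was incubated with 200 nM protein in PBS, 2% BSA, salmon testes DNA and 50 µM zinc acetate at 25 °C for 1 h, then washed. The binding signal is per-feature fluorescence intensity (arbitrary units) read on an Axon 4000B scanner.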
row,Sequence,binding signal
1,CAGAGCGCTAATGTTATTGTCCATCGGCCTCTTGTTGCAGCGGAGTCACCTAGTGCAG,8860 fluorescence intensity (a.u.)
2,ACTTCAGTCACCCGAAATTTAGCGTATACTATTTTTTTTACGGAGTCACCTAGTGCAG,11800 fluorescence intensity (a.u.)
3,TCCACCCCGGCCTCCACATCCGCTCCACCCGCCGCCTCCCCGGAGTCACCTAGTGCAG,8570 fluorescence intensity (a.u.)
4,TGCCGGCGATTGGACTCTTCTACTCTCTCCCTTTCCTTTGCGGAGTCACCTAGTGCAG,10800 fluorescence intensity (a.u.)
5,CCCGTCAACGCCACCTCACCGTTGACGTTGCCACTCTCTTCGGAGTCACCTAGTGCAG,16800 fluorescence intensity (a.u.)
6,CACATTTTCATGGCTCATCACAACAGTTACAATTTCCCTTCGGAGTCACCTAGTGCAG,10800 fluorescence intensity (a.u.)
7,TCTACCGCATCTTCTGCTGCTTCATCCGTCCTCCTAAATCCGGAGTCACCTAGTGCAG,14400 fluorescence intensity (a.u.)
8,TCTCTCTCTCTTTTCTCTCTAGCTATTCAATGCTCCTTTTCGGAGTCACCTAGTGCAG,8050 fluorescence intensity (a.u.)
9,AACTCCACAACCATCTCTATTCCTTCATTTTTCCTAATCCCGGAGTCACCTAGTGCAG,8810 fluorescence intensity (a.u.)
10,TCGCCGAGGGTGGGCTTCAAGGTGGACGCGGAGAAAGCGACGGAGTCACCTAGTGCAG,8490 fluorescence intensity (a.u.)
11,GCCCCTCTCGCCGGCCGCCGACCCGCCCCTGCTGCTCACCCGGAGTCACCTAGTGCAG,8900 fluorescence intensity (a.u.)
12,AAAACATTCGCAATATGGCCTCTTGCATTCAATTTAGATTCGGAGTCACCTAGTGCAG,8390 fluorescence intensity (a.u.)
13,TACTTTTAGTAGATGGGTTGGTGATTATTTTTTCAATGTACGGAGTCACCTAGTGCAG,10700 fluorescence intensity (a.u.)
14,TCGCGGGGATGTTCGGCTGTTTCGGTTTCGGCCTGCGTAACGGAGTCACCTAGTGCAG,8880 fluorescence intensity (a.u.)
15,TTACTCTGCAAGGTACTCTCATCTTGGATCACTTGATTTTCGGAGTCACCTAGTGCAG,8170 fluorescence intensity (a.u.)
16,TCGTGAACGCCATCACCCATCAGTTTCCTCGTCCTTGCCTCGGAGTCACCTAGTGCAG,10100 fluorescence intensity (a.u.)
17,CTTTCCGTTATCTCTCTCCTCTATTGCAGCCGCCGCCGCTCGGAGTCACCTAGTGCAG,9610 fluorescence intensity (a.u.)
18,TCGAATATCTCTCTTACTCACTACTCGGCATCATAGTTCACGGAGTCACCTAGTGCAG,8640 fluorescence intensity (a.u.)
19,CCTCTTCATTTTTCCTCGACGGCCCAGCTCCCTCGACCAACGGAGTCACCTAGTGCAG,9920 fluorescence intensity (a.u.)
20,CTGCTCATATTTGCTCTAGTGTAACTACTTATGCTCCAAACGGAGTCACCTAGTGCAG,8720 fluorescence intensity (a.u.)
21,TAATGTATGACGCCGTTGACTTTTTGATTAACGTTTGACCCGGAGTCACCTAGTGCAG,34800 fluorescence intensity (a.u.)

# Exported with tabs: part of the list above
row	Sequence	binding signal
9	AACTCCACAACCATCTCTATTCCTTCATTTTTCCTAATCCCGGAGTCACCTAGTGCAG	8810 fluorescence intensity (a.u.)
10	TCGCCGAGGGTGGGCTTCAAGGTGGACGCGGAGAAAGCGACGGAGTCACCTAGTGCAG	8490 fluorescence intensity (a.u.)

# Remaining list, next part:

row,Sequence,binding signal
1,CATCCTCCTTTTAGCTTTGCTTAATTGTGCCGCTATAGATCGGAGTCACCTAGTGCAG,8480 fluorescence intensity (a.u.)
2,ACGGGGACAGGGAGAGGAGCGGGGATTTTGTGGCGGGAGACGGAGTCACCTAGTGCAG,9460 fluorescence intensity (a.u.)
3,ACCACAATGTACTTTTTCTCCCACGCATACAGTTCCCAAACGGAGTCACCTAGTGCAG,8250 fluorescence intensity (a.u.)
4,TATCTTTTTATTTTTTTTTCGGGATCAAATTATCATATAACGGAGTCACCTAGTGCAG,8090 fluorescence intensity (a.u.)
5,CAGAACCAGGTTTTGCCTTGTTGCACATCCTTCTAGCTTCCGGAGTCACCTAGTGCAG,8270 fluorescence intensity (a.u.)
6,CTCTATCACTCGCTCTTCCGACCACGCCTCATCCGCCATGCGGAGTCACCTAGTGCAG,8860 fluorescence intensity (a.u.)
7,AGCTCTCACCATTCATTCCACTATACAAGCCTAAGGCAGCCGGAGTCACCTAGTGCAG,8430 fluorescence intensity (a.u.)
8,GTTTGACTGCTAGTGCATTAATCAGATTTAAACTTACAATCGGAGTCACCTAGTGCAG,9290 fluorescence intensity (a.u.)
9,GGTTAGGAAGAAGGATGGTACTTGGAGATTGGTCATTGACCGGAGTCACCTAGTGCAG,9440 fluorescence intensity (a.u.)
10,ACGTACATTTAAGTTTGGCATTGAAGTAGCTCATGTTATGCGGAGTCACCTAGTGCAG,8800 fluorescence intensity (a.u.)
11,AAAGTCGTGTAACTTCATTGACGTTGGCATATTGTACTATCGGAGTCACCTAGTGCAG,8670 fluorescence intensity (a.u.)
12,CCGGTCCACTCACCCCTAACCCTAGCCGCTGCTGCCCGTCCGGAGTCACCTAGTGCAG,9170 fluorescence intensity (a.u.)
13,GAACAGCCCACATGGCACAACCACGAATTTTGGCCCACATCGGAGTCACCTAGTGCAG,8660 fluorescence intensity (a.u.)
14,CTCTTGATACCTAGCTAGGTTCCATTTCTCACTATCCTCTCGGAGTCACCTAGTGCAG,11000 fluorescence intensity (a.u.)
15,GCATAGAGTACTTGAACTGTTGAAACCAGATCACTTTACACGGAGTCACCTAGTGCAG,8300 fluorescence intensity (a.u.)
16,CGTCATCGTCGCCGCGCGTTCACACCAAGCTATAGCCACCCGGAGTCACCTAGTGCAG,9680 fluorescence intensity (a.u.)
17,GTTTGGTTCACGGTCATGTATGGATAGGATATGGCCATTCCGGAGTCACCTAGTGCAG,8070 fluorescence intensity (a.u.)
18,TTCATATTATAAGACTTTCTAGCATTGTTTATATTCATTTCGGAGTCACCTAGTGCAG,8310 fluorescence intensity (a.u.)
19,CTATCGTCATCCTCGCGATCGCCGCATTCATCCATCCACTCGGAGTCACCTAGTGCAG,12800 fluorescence intensity (a.u.)
20,CTGCAACAATTTGTCCTTTTCATTTGTCTTGCAGTTCTTGCGGAGTCACCTAGTGCAG,10100 fluorescence intensity (a.u.)
21,ACTGGACTATTTTTTTTTCGCGGCAAATCCATATCACTGCCGGAGTCACCTAGTGCAG,8880 fluorescence intensity (a.u.)

row,Sequence,binding signal
1,AATTGTAAAGTTGACTTTAATGTTTTTTTTATTGTGGTTTCGGAGTCACCTAGTGCAG,8740 fluorescence intensity (a.u.)
2,CCATCTCCTTCAGCCTTCGCTTCATCTGGTCGAGCTCCTGCGGAGTCACCTAGTGCAG,9080 fluorescence intensity (a.u.)
3,GCAAGTTCATGATCTACACTATTACACTCACTTCTACTAACGGAGTCACCTAGTGCAG,8730 fluorescence intensity (a.u.)
4,GCTTATTGGGTATTTTGGTTTGACACTGCTTCACGCCCAACGGAGTCACCTAGTGCAG,10500 fluorescence intensity (a.u.)
5,CGAGCTCTCTCCTTCCTTGTCTCGGGTCTCGGCATTGCATCGGAGTCACCTAGTGCAG,9920 fluorescence intensity (a.u.)
6,CTTCAGTTCAATATTCTTCCCCACTAGATATCCTCTTGTCCGGAGTCACCTAGTGCAG,8160 fluorescence intensity (a.u.)
7,TCAGATACCCAGTATGCTCAAGCTCAGCTCTTGGACACCGCGGAGTCACCTAGTGCAG,8240 fluorescence intensity (a.u.)
8,AAATCCTGATTCCGATTGCTTTTTACCTCCTGTTCTTATACGGAGTCACCTAGTGCAG,10300 fluorescence intensity (a.u.)
9,GTCTTGCGTGTTTGTATAATGATATATTTCTTATTAATCTCGGAGTCACCTAGTGCAG,10000 fluorescence intensity (a.u.)
10,GGTCGTGTCAAGTTCCAGCCTTAACAGCGAAGCAAAACATCGGAGTCACCTAGTGCAG,8040 fluorescence intensity (a.u.)
11,CCACTTCCAGCATGGCATTTGGGCGAAACCCACTTTTTGACGGAGTCACCTAGTGCAG,8610 fluorescence intensity (a.u.)
12,TACATTACTTCATATTTTTTTCTGTTTGTGATTTCTATTTCGGAGTCACCTAGTGCAG,9740 fluorescence intensity (a.u.)
13,TTTATATCCGGCTTTTTTACCCTCGTCAATTTCTCATTCGCGGAGTCACCTAGTGCAG,9740 fluorescence intensity (a.u.)
14,TCACCACCGCGACTTCAGTTCTCCACCTTCAACCACTTCTCGGAGTCACCTAGTGCAG,11800 fluorescence intensity (a.u.)
15,GTATAACTGGTTGAGTTGGTGTGTGGGGCTACCTTTCTTCCGGAGTCACCTAGTGCAG,10900 fluorescence intensity (a.u.)
16,GATATATATACGCGTTCATCAGCGTACGTTCTTATAGCTACGGAGTCACCTAGTGCAG,8360 fluorescence intensity (a.u.)
17,CTATTTTTACCTAACTTTCAGCTCTATCACTTCCATTTCACGGAGTCACCTAGTGCAG,9040 fluorescence intensity (a.u.)
18,CCGCCGCGCACTGCCGCCGCCGCCGCCACAACCGCGCGCCCGGAGTCACCTAGTGCAG,8270 fluorescence intensity (a.u.)
19,GCTACTATACCTAGGCTCTTGCTCCACAGGCTTACCGTGCCGGAGTCACCTAGTGCAG,8360 fluorescence intensity (a.u.)
20,TAAATCCGTAGCGTACGTAACCCCTGCTCCGTTCATCATCCGGAGTCACCTAGTGCAG,8030 fluorescence intensity (a.u.)
21,CTCAATGATGTTTTTCCTGCAGTATCTTGACATTTGAATCCGGAGTCACCTAGTGCAG,10800 fluorescence intensity (a.u.)

row,Sequence,binding signal
1,CCGCAACAACCACTAACCGACAACCACGTGGCCGCCGAATCGGAGTCACCTAGTGCAG,8220 fluorescence intensity (a.u.)
2,CACCACTCTCGGGCCCACATGTCAACCACCAAATCAGTAGCGGAGTCACCTAGTGCAG,8160 fluorescence intensity (a.u.)
3,CGAGACGCTCACGCCGGCCGGCCATCACGGTATAGCCACCCGGAGTCACCTAGTGCAG,9360 fluorescence intensity (a.u.)
4,CACTCCTCTTCTTCTTGTTCTTCTTGCTTCCCTCCAACTTCGGAGTCACCTAGTGCAG,9150 fluorescence intensity (a.u.)
5,TCCATCACGACCCCAACTCGTCCTCAATCGCGGCCACCCGCGGAGTCACCTAGTGCAG,9130 fluorescence intensity (a.u.)
6,TCTAACGTATGAGTAGTGTATAATTTCGGGGAGGAAAAGACGGAGTCACCTAGTGCAG,10500 fluorescence intensity (a.u.)
7,ACATTAGTTTTTGCGCTCAAATTTGAATTTCTATTACTATCGGAGTCACCTAGTGCAG,9310 fluorescence intensity (a.u.)
8,TTTCATCCGATATGGCTCGTTGACTTGATCCACTTAGCTGCGGAGTCACCTAGTGCAG,11200 fluorescence intensity (a.u.)
9,GTCTGCTGATTGTATTATGTTCTTTTAGGTAGTTAATTCGCGGAGTCACCTAGTGCAG,8200 fluorescence intensity (a.u.)
10,TGCCGCTCGCATCTCCACTCCCAACTTCGGATCAACTACACGGAGTCACCTAGTGCAG,9560 fluorescence intensity (a.u.)
11,GCCGATGACGATTCCATCCCCGCGGATCTAAGCTTGCCGCCGGAGTCACCTAGTGCAG,8080 fluorescence intensity (a.u.)
12,ACCATCTAGCTCACTCACACAGTCTCCACTCACACGCATTCGGAGTCACCTAGTGCAG,8840 fluorescence intensity (a.u.)
13,GGTCCTCCAACTTGTTCAGTTGTGTCACCTCGGTCCCTAACGGAGTCACCTAGTGCAG,8960 fluorescence intensity (a.u.)
14,TTCTTTTCGTTCTCGTGGCTGTCATTCTCCGACGTGCTCACGGAGTCACCTAGTGCAG,10200 fluorescence intensity (a.u.)
15,ATAATACCTCATATCACTCTGCTGTCCAGTCTACTCCCTTCGGAGTCACCTAGTGCAG,8240 fluorescence intensity (a.u.)
16,TCAGCATTGTTCTTGTATTCCCCACTTCCTGAAGTTCTTACGGAGTCACCTAGTGCAG,8090 fluorescence intensity (a.u.)
17,AAAACTGGGTTTTACAACTTTTGATTTCTAGTTTATTTTTCGGAGTCACCTAGTGCAG,8160 fluorescence intensity (a.u.)
18,ACGTGTCAAACCCCAAATCCCAGGCCGGTTTACTCGTTTTCGGAGTCACCTAGTGCAG,8140 fluorescence intensity (a.u.)
19,TCTAATTTCTACACTGTCCTTTAGACTATTCAGTATACATCGGAGTCACCTAGTGCAG,10300 fluorescence intensity (a.u.)
20,ATCCGTTTTTGCGTTCAGGGATGAATTTCGGACTCGGCGACGGAGTCACCTAGTGCAG,8220 fluorescence intensity (a.u.)
21,GCCGAGCCCCATCTTCTGCTGCGACCCCGTAGCGCTCAACCGGAGTCACCTAGTGCAG,9240 fluorescence intensity (a.u.)

# Two records drawn at random from those above, as already listed:
row,Sequence,binding signal
19,TCTAATTTCTACACTGTCCTTTAGACTATTCAGTATACATCGGAGTCACCTAGTGCAG,10300 fluorescence intensity (a.u.)
10,TGCCGCTCGCATCTCCACTCCCAACTTCGGATCAACTACACGGAGTCACCTAGTGCAG,9560 fluorescence intensity (a.u.)
